The values below come from article PMC4652285.

The chains behind the UniProt entries cited, without tags or fusion partners. Residues count along the entry.
UniProt P27824, residues 21-592: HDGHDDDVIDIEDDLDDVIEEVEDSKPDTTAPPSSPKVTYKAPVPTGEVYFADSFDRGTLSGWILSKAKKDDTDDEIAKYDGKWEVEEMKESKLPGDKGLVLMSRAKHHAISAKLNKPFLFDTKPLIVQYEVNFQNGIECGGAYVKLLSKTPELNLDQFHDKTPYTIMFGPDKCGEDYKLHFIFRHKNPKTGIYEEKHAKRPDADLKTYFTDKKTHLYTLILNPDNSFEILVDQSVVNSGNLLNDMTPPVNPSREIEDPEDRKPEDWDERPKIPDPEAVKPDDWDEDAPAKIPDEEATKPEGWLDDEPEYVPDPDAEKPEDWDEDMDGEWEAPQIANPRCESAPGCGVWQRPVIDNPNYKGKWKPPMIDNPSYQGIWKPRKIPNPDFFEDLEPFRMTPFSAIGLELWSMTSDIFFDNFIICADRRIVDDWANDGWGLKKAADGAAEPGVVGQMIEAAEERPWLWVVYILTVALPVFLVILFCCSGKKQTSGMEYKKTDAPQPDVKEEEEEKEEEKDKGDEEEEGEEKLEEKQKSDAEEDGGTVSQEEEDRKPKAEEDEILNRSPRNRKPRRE

The target in the test is T1, Recombinant mouse Gpnmb lacking signal peptide tagged with 3xFLAG peptides (mouse) (UniProt Q99P91).
T1 sequence: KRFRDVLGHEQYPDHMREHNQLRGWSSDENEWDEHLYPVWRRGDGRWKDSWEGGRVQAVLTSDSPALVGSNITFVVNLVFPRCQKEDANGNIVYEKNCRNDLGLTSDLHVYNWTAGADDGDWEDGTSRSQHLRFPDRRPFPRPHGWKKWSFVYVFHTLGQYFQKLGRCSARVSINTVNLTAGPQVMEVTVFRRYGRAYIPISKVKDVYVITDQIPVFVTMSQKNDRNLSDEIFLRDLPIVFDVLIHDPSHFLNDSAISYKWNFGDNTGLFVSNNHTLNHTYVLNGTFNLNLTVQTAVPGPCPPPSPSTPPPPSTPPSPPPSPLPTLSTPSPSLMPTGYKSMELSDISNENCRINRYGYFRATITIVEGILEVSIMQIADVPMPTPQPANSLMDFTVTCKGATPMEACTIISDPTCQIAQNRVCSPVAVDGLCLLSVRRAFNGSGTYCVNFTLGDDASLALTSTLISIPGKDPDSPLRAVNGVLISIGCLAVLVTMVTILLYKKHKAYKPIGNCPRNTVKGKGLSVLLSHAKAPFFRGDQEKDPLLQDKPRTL
Briefly: affinity purification with mass spectrometry; LI90 cells transfected with p3xFLAG-mGpnmb or control vector; soluble proteins purified on ANTI-FLAG M2 affinity resin, SDS-PAGE, silver stain, visible bands in-gel digested with trypsin, LC-MS/MS.

These are yes or no findings as the source states them, for the method shown. Binding seen in cells or lysates may run through a third protein. These calls come from enrichment with a bait or labelling near it, and not all partners need be listed. Where a sequence is shown, tags or fusion partners need not be part of it.

With calnexin (from UniProt P27824 21-592), the binding result is reported as “binds”.
